These are yes or no findings as the source states them, for the method shown. In cells and extracts the contact can be indirect. Some entries that bind do so weakly or less than the wild type.

Amino acid sequences for entries named in this document (tags omitted).
UniProt P31749: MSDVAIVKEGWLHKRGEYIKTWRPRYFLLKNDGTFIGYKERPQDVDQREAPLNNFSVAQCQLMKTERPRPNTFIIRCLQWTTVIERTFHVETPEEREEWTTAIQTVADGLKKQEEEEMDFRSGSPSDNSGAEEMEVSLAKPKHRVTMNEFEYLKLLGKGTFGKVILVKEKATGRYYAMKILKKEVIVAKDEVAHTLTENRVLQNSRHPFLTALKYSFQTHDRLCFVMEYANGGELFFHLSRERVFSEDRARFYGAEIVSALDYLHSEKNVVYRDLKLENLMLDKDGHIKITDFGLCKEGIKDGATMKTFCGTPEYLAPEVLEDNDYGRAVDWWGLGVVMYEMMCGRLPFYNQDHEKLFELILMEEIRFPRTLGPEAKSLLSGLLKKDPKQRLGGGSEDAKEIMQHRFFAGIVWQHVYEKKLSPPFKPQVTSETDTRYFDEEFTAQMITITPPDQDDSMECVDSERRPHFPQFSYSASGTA
UniProt P31751: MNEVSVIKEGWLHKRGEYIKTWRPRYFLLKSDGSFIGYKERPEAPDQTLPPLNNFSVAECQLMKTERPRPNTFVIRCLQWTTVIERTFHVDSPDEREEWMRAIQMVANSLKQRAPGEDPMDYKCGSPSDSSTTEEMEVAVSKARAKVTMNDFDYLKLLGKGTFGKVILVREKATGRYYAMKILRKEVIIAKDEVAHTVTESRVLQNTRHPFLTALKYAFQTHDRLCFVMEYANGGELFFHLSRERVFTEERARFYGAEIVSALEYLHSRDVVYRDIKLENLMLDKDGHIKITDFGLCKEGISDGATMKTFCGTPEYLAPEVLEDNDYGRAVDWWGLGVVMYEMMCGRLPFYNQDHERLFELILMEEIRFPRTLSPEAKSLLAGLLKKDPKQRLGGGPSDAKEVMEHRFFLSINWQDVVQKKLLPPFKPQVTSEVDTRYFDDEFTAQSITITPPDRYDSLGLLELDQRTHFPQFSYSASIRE
UniProt Q9Y243: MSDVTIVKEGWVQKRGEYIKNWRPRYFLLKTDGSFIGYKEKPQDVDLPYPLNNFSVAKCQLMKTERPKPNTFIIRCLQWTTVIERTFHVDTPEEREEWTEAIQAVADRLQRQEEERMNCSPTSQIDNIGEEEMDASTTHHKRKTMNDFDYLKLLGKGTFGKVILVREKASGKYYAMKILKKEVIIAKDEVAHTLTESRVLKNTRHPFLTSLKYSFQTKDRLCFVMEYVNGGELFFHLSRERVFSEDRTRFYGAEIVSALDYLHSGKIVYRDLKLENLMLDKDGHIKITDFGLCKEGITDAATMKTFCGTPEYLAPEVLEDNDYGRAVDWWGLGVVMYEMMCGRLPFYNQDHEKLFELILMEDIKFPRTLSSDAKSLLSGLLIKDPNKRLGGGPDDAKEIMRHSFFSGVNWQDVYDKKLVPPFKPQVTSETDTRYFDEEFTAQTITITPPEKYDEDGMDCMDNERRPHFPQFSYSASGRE

The target of this assay is MEK2 (MEK1-/- mouse embryonic fibroblasts) (mouse (endogenous in MEFs)) (UniProt Q63932). The experiment in a line: co-IP; the three AKTs overexpressed in COS7 cells and in MEK1-/- MEFs, resting and stimulated; details in Fig. S1.
As for AKT1-GFP (from UniProt P31749 1-480), the binding result is “binds”.

Consider AKT2-GFP (from UniProt P31751 1-481), for which the binding entry is recorded as “binds”.

With AKT3-GFP (from UniProt Q9Y243 1-479), the binding entry was “binds”.

These data come from publication PMC5320536.
